For 2 molecules, binding results are on record in paper PMC3027643.

Chains of the proteins cited; added tags and fusions are not shown. Lines headed by an entry give the natural chain unless they say otherwise; changes in a name come on top. A line that says so, or that is headed by a name, gives the form on record, which may keep a tag or linker. Residues count along the entry.
UniProt Q16595: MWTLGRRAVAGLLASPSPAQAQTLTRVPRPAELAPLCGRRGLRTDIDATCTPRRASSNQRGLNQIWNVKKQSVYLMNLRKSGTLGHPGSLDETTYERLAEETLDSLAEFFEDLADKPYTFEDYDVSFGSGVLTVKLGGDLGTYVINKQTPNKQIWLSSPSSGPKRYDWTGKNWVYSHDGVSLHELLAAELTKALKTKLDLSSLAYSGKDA
recombinant human frataxin with a C-terminal flag epitope (hFXN-Flag): residues 42-210 of Q16595
mature form of human frataxin (aa 81–210) fused to an N-terminal GST (GST-hFXN 81–210): residues 81-210 of Q16595

Results are given in words; binding and its absence hold for the method and conditions named. For some assays here: In cells and extracts the contact can be indirect. Some entries that bind do so weakly or less than the wild type. For some assays here: Where a sequence is shown, tags or fusion partners need not be part of it.

Assay [1] has as its target T1, mISCU-HIS (mouse) (UniProt Q9D7P6).
T1 sequence: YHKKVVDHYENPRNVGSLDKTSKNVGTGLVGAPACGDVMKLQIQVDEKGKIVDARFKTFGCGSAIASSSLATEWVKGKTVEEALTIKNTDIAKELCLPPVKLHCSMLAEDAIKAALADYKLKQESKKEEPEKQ
In words: pull-down; mISCU-HIS co-expressed with mNFS1 and mISD11 in bacteria, purified by cobalt column; western blot. In general terms: In western blotting, separated proteins are transferred to a membrane and probed.

In assay [2] the target is T1, mISCU-HIS (mouse). In words: SEC; mISCU-HIS (wild type or D72A)/mNFS1/mISD11 co-expressed in bacteria, HIS-tag purification and gel filtration; ternary complex in fractions 5 to 7. (In general: Size exclusion chromatography separates by hydrodynamic size, large species first.)
The target of another assay is T2, mISCUD72A-HIS (mouse) (UniProt Q9D7P6).
T2 sequence: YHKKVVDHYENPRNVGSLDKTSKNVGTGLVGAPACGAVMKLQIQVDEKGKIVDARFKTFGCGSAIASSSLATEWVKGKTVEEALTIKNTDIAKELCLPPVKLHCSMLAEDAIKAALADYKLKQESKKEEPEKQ
The assay is described as above.

Assay [3] has as its target recombinant human frataxin with a C-terminal flag epitope (hFXN-Flag) (human) (UniProt Q16595). In words: co-IP; FLAG M2 resin, mitochondria-enriched HeLa extract expressing Flag-tagged frataxin, western blot of the eluate; mitochondria treated or not with 100 µM hydrogen peroxide and 2 mM citrate.
Assay [4] deals with mature form of human frataxin (aa 81–210) fused to an N-terminal GST (GST-hFXN 81–210) (human) (UniProt Q16595). In words: pull-down; 100 µg GST-fused frataxin with 5–10 mg HeLa mitochondria-enriched extract and glutathione sepharose beads, 3 hours, Tris-HCl 100 mM pH 7.5, 10% glycerol, 100 mM KCl; western blot; iron/ascorbate or EDTA added in some samples without effect; only the target purified.

B1: mISD11 (murine ISD11) (protein, UniProt Q8K215 1-91)
chain: MAASSRAQVLDLYRAMMRESKHFSAYNYRMYAVRRIRDAFRENKNVKDPVEIQALVNKAKRDLEIIRRQVHIGQLYSTDKLIIENQEKPRT
For the molecule B1, the binding entry with mISCU-HIS (mouse) [1], in the assay with mISCU-HIS (mouse) [2] and with mISCUD72A-HIS (mouse) was “binds” each time.

B2: mitochondrial aconitase (mACO) (enzyme, UniProt Q99798 28-780)
chain: QRAKVAMSHFEPNEYIHYDLLEKNINIVRKRLNRPLTLSEKIVYGHLDDPASQEIERGKSYLRLRPDRVAMQDATAQMAMLQFISSGLSKVAVPSTIHCDHLIEAQVGGEKDLRRAKDINQEVYNFLATAGAKYGVGFWKPGSGIIHQIILENYAYPGVLLIGTDSHTPNGGGLGGICIGVGGADAVDVMAGIPWELKCPKVIGVKLTGSLSGWSSPKDVILKVAGILTVKGGTGAIVEYHGPGVDSISCTGMATICNMGAEIGATTSVFPYNHRMKKYLSKTGREDIANLADEFKDHLVPDPGCHYDQLIEINLSELKPHINGPFTPDLAHPVAEVGKVAEKEGWPLDIRVGLIGSCTNSSYEDMGRSAAVAKQALAHGLKCKSQFTITPGSEQIRATIERDGYAQILRDLGGIVLANACGPCIGQWDRKDIKKGEKNTIVTSYNRNFTGRNDANPETHAFVTSPEIVTALAIAGTLKFNPETDYLTGTDGKKFRLEAPDADELPKGEFDPGQDTYQHPPKDSSGQHVDVSPTSQRLQLLEPFDKWDGKDLEDLQILIKVKGKCTTDHISAAGPWLKFRGHLDNISNNLLIGAINIENGKANSVRNAVTQEFGPVPDTARYYKKHGIRWVVIGDENYGEGSSREHAALEPRHLGGRAIITKSFARIHETNLKKQGLLPLTFADPADYNKIHPVDKLTIQGLKDFTPGKPLKCIIKHPNGTQETILLNHTFNETQIEWFRAGSALNRMKELQQ
In the case of B2, the binding result in assay [3] and in assay [4] was “no binding” throughout.
